The other results are listed elsewhere or left out. The main result of the screen is listed elsewhere. These columns were measured beside it and carry no call. The list favours compounds with an active or inconclusive main result. Words in brackets tell the shape of the fitted curve; partial curves, single points and poor fits give uncertain potencies.
Experiment: qHTS Assay for Modulators of Lamin A Splicing
Conditions: HeLa LMNA splicing GFP/RFP minigene ratio, 48 h
Summary of the method: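 S3 HeLa stable clones carrying a lamin A-EGFP splicing minigene plus DsRed2 were seeded at 600 cells/well in Opti-MEM with 2% FBS, pin-dosed and incubated 48 h at 37°C. Acumen cytometry (488 nm) gave the GFP/RFP total-intensity ratio.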

[1] = measured here: RFP viability control channel
[2] = measured here: GFP splicing reporter channel

Row | SMILES | AC50 [1] | AC50 [2]
1 | Cc1cc(-c2nnc(SCC(=O)c3ccc4c(c3)OCCO4)o2)no1 | 35.5 µM [rising, single point] | 
2 | O=C(Nc1cccc(NC(=O)c2cccs2)c1)c1ccc2c(c1)OCO2 |  | 0.00316 µM [falling, full curve, poor fit]
3 | Cc1cc(/C=N/n2cnnc2)c(O)c([N+](=O)[O-])c1 | 8.91 µM [rising, partial curve] | 1.78 µM [rising, full curve, poor fit]
4 | CCNc1ncc2ncc(=O)n(Cc3cccc(OC)c3)c2n1 |  | 12.6 µM [falling, single point]
5 | COc1ccc(NC(=S)NCCc2c[nH]c3ccccc23)c(OC)c1 | 22.4 µM [rising, single point] | 15.8 µM [rising, single point]
6 | Cc1ccc(Nc2nnc(SCC(=O)c3ccc(Br)s3)s2)c(C)c1 | 31.6 µM [rising, single point] | 
7 | CN(c1ccc(C(=O)N2CCN(Cc3ccc4c(c3)OCO4)CC2)cc1)S(=O)(=O)c1ccccc1 | 11.2 µM [rising, partial curve] | 
8 | Cc1ccccc1NC(=O)Cn1c(NCC(C)O)nc2ccccc21 (configuration not stated) | 1.12 µM [rising, full curve, poor fit] | 
9 | O=C(CNC(=O)c1ccco1)OCC(=O)c1ccccc1Cl |  | 0.0126 µM [rising, full curve, poor fit]
10 | COc1ccccc1N1CCN(c2ccc([N+](=O)[O-])cc2Cl)CC1 | 3.16 µM [rising, full curve] | 
11 | CC(=O)N1C(C)(C)CC(=NOC(=O)c2ccccc2)CC1(C)C | 0.00501 µM [falling, full curve, poor fit] | 3.98 µM [falling, single point]
12 | COC(=O)c1ccccc1NC(=O)c1ncoc1-c1ccco1 | 35.5 µM [falling, single point] | 
13 | CCCc1cc(=O)oc2c3c(ccc12)OCN(Cc1ccc(OC)cc1)C3 | 25.1 µM [falling, partial curve, poor fit] | 35.5 µM [falling, single point]
14 | O=C(N/N=C/c1ccccc1OC(=O)c1ccc2c(c1)OCO2)c1cccc(F)c1 | 12.6 µM [rising, single point] | 
15 | Cc1ccc(-n2ccc(=O)c(-c3ccnc(SCc4cccc(Cl)c4)n3)n2)cc1 | 35.5 µM [falling, single point] | 35.5 µM [falling, single point]
16 | CCCn1nc(C(=O)Nc2cccc(C(=O)OC)c2)c2ccccc2c1=O | 31.6 µM [rising, single point] | 
17 | COc1ccccc1C(=O)N1CCC(C(=O)c2ccc(F)cc2)CC1 | 14.1 µM [rising, single point] | 20 µM [rising, partial curve, poor fit]
18 | N#Cc1c(-c2ccccc2)ccnc1N1CCOCC1 | 22.4 µM [falling, partial curve, poor fit] | 0.00794 µM [falling, full curve, poor fit]
19 | COc1ccc(C(=O)NC(C(=O)N2CCc3ccccc32)C(C)C)cc1 (configuration not stated) | 1.58 µM [falling, full curve] | 0.0708 µM [falling, full curve]
20 | O=C(C1CCN(c2ncnc3c2nc2n3CCCCC2)CC1)N1CCN(c2cccc(Cl)c2)CC1 |  | 3.55 µM [falling, single point]
21 | Cc1ccc(Cl)cc1N1CCN(C(=O)C2(S(=O)(=O)c3ccc(Cl)cc3)CC2)CC1 | 12.6 µM [rising, single point] | 
22 | O=C(/C=C/c1ccc(O)c(O)c1)c1ccc(S(=O)(=O)N2CCCCCC2)cc1 | 12.6 µM [rising, partial curve] | 17.8 µM [rising, single point]
23 | Cc1cn[nH]c1 | 5.62 µM [falling, partial curve, poor fit] | 
24 | Clc1ccc(/C=N/Nc2ncnc3ccccc23)cc1Cl | 22.4 µM [falling, partial curve] | 14.1 µM [falling, single point]
25 | CCOC(=O)c1c(NC(=O)CSc2nc3ccccc3o2)sc(C)c1C | 12.6 µM [rising, partial curve] | 3.55 µM [rising, partial curve]
26 | O=C(Nc1ccc(Br)c(C(F)(F)F)c1)c1ccccc1 | 28.2 µM [rising, single point] | 12.6 µM [rising, single point]
27 | Cc1cc(C)c(C(=O)/C=C/c2cccs2)c(=O)[nH]1 | 31.6 µM [rising, single point] | 

Exported comma-delimited: entries from further up
Row,SMILES,AC50 [1],AC50 [2]
1,Cc1cc(-c2nnc(SCC(=O)c3ccc4c(c3)OCCO4)o2)no1,"35.5 µM [rising, single point]",
2,O=C(Nc1cccc(NC(=O)c2cccs2)c1)c1ccc2c(c1)OCO2,,"0.00316 µM [falling, full curve, poor fit]"
4,CCNc1ncc2ncc(=O)n(Cc3cccc(OC)c3)c2n1,,"12.6 µM [falling, single point]"
7,CN(c1ccc(C(=O)N2CCN(Cc3ccc4c(c3)OCO4)CC2)cc1)S(=O)(=O)c1ccccc1,"11.2 µM [rising, partial curve]",
8,Cc1ccccc1NC(=O)Cn1c(NCC(C)O)nc2ccccc21 (configuration not stated),"1.12 µM [rising, full curve, poor fit]",
9,O=C(CNC(=O)c1ccco1)OCC(=O)c1ccccc1Cl,,"0.0126 µM [rising, full curve, poor fit]"
11,CC(=O)N1C(C)(C)CC(=NOC(=O)c2ccccc2)CC1(C)C,"0.00501 µM [falling, full curve, poor fit]","3.98 µM [falling, single point]"
14,O=C(N/N=C/c1ccccc1OC(=O)c1ccc2c(c1)OCO2)c1cccc(F)c1,"12.6 µM [rising, single point]",
16,CCCn1nc(C(=O)Nc2cccc(C(=O)OC)c2)c2ccccc2c1=O,"31.6 µM [rising, single point]",
17,COc1ccccc1C(=O)N1CCC(C(=O)c2ccc(F)cc2)CC1,"14.1 µM [rising, single point]","20 µM [rising, partial curve, poor fit]"
19,COc1ccc(C(=O)NC(C(=O)N2CCc3ccccc32)C(C)C)cc1 (configuration not stated),"1.58 µM [falling, full curve]","0.0708 µM [falling, full curve]"
20,O=C(C1CCN(c2ncnc3c2nc2n3CCCCC2)CC1)N1CCN(c2cccc(Cl)c2)CC1,,"3.55 µM [falling, single point]"
21,Cc1ccc(Cl)cc1N1CCN(C(=O)C2(S(=O)(=O)c3ccc(Cl)cc3)CC2)CC1,"12.6 µM [rising, single point]",
22,O=C(/C=C/c1ccc(O)c(O)c1)c1ccc(S(=O)(=O)N2CCCCCC2)cc1,"12.6 µM [rising, partial curve]","17.8 µM [rising, single point]"
25,CCOC(=O)c1c(NC(=O)CSc2nc3ccccc3o2)sc(C)c1C,"12.6 µM [rising, partial curve]","3.55 µM [rising, partial curve]"
26,O=C(Nc1ccc(Br)c(C(F)(F)F)c1)c1ccccc1,"28.2 µM [rising, single point]","12.6 µM [rising, single point]"
27,Cc1cc(C)c(C(=O)/C=C/c2cccs2)c(=O)[nH]1,"31.6 µM [rising, single point]",

(listing goes on)

Row | SMILES | AC50 [1] | AC50 [2]
28 | Cc1ccccc1NC(=S)N(CCN1CCOCC1)Cc1ccccc1F |  | 0.631 µM [rising, single point]
29 | COCC(=O)NCc1nc2cccnc2n1Cc1ccc(F)cc1 | 0.0224 µM [falling, full curve, poor fit] | 0.0224 µM [falling, full curve, poor fit]
30 | c1ccc(-c2csc(N3CCSCC3)n2)cc1 |  | 35.5 µM [falling, partial curve]
31 | Cc1ccccc1NC(=O)c1ccc(Cl)c(NC(=O)c2ccncc2)c1 | 14.1 µM [rising, single point] | 31.6 µM [rising, single point]
32 | O=C(NC(=S)Nc1ccccc1N1CCOCC1)c1ccc(-c2cc(Cl)ccc2Cl)o1 | 31.6 µM [rising, partial curve, poor fit] | 
33 | Cc1ccc(S(=O)(=O)N(C)C)cc1NC(=S)NC(C)CCC(C)C (configuration not stated) | 12.6 µM [rising, partial curve] | 12.6 µM [rising, partial curve]
34 | CCC(C(=O)Nc1cc(Cl)ccc1OC)c1ccccc1 (configuration not stated) | 31.6 µM [rising, single point] | 17.8 µM [rising, single point]
35 | COc1ccc(Nc2cc(C(=O)NCCCN3CCN(c4ccc(OC)cc4)CC3)c3ccccc3n2)cc1 | 15.8 µM [rising, single point] | 
36 | NNC(=O)c1ccc(Cn2cc(Br)cn2)cc1 | 11.2 µM [rising, partial curve] | 11.2 µM [rising, partial curve]
37 | COc1cccc(-c2cc3nc4c(c(N5CCC6(CC5)OCCO6)n3n2)CCC4)c1 | 22.4 µM [rising, partial curve, poor fit] | 
38 | Cc1ccc(C)c(SCC(=O)Nc2cccc(S(=O)(=O)NC3=NCCCCC3)c2)c1 | 20 µM [rising, single point] | 7.08 µM [rising, partial curve]
39 | O=[N+]([O-])c1ccc(C2CN=C(Nc3ccccc3)S2)cc1 (configuration not stated) | 0.141 µM [falling, full curve, poor fit] | 
40 | O=c1c2cnn(-c3ccccc3)c2ncn1Cc1ccccc1 | 20 µM [rising, partial curve] | 22.4 µM [rising, single point]
41 | Cc1cc(C(=O)NC(=S)Nc2cccc(NC(=O)C(C)C)c2)ccc1[N+](=O)[O-] | 22.4 µM [rising, partial curve] | 
42 | CCc1ccccc1NC(=O)c1ccccc1Sc1ccc([N+](=O)[O-])cc1Cl | 0.0501 µM [rising, full curve, poor fit] | 
43 | O=C(NCC(c1ccc2c(c1)OCO2)N1CCOCC1)c1cccc(Cl)c1 (configuration not stated) |  | 7.94 µM [falling, partial curve, poor fit]
44 | Cc1ccc2nc(-c3ccc(SCC(=O)Nc4nnc(C)s4)nc3)[nH]c2c1 | 1.58 µM [rising, full curve, poor fit] | 
45 | CCOC(=O)C1(Cc2cccc(OC)c2)CCN(C(C)COC)CC1 (configuration not stated) | 0.282 µM [falling, full curve, poor fit] | 1 µM [falling, single point]
46 | COc1ccccc1OCC(=O)NCCSCc1ccc(Cl)cc1 | 35.5 µM [rising, single point] | 11.2 µM [rising, single point]
47 | CCN(c1ccccc1)S(=O)(=O)c1ccc(F)c(C(=O)O)c1 | 8.91 µM [falling, full curve, poor fit] | 
48 | CCC(C)NS(=O)(=O)c1ccc(S(=O)(=O)N(CCc2ccc(OC)c(OC)c2)Cc2cccs2)cc1 (configuration not stated) | 3.98 µM [rising, full curve] | 3.98 µM [rising, full curve, poor fit]
49 | COc1ccc(C)cc1-n1nnnc1SCc1nc2ccccc2c(=O)[nH]1 | 0.501 µM [falling, full curve, poor fit] | 
50 | CSc1nnc(C)c(=O)n1COC(=O)/C=C/c1ccc2c(c1)OCO2 |  | 6.31 µM [rising, partial curve, poor fit]
51 | O=C(Nc1cc(C(F)(F)F)ccc1Cl)c1nc2ccccc2nc1N1CCCCC1 |  | 4.47 µM [falling, full curve, poor fit]
52 | COc1ccc(CCNC(=O)CSCc2ccc(Cl)cc2)cc1OC | 17.8 µM [rising, single point] | 
53 | O=C(Cn1c(=O)nc(-c2ccccc2)c2ccccc21)NCc1ccc(Cl)cc1 |  | 5.62 µM [falling, partial curve]
54 | Cc1cc(C)c(S(=O)(=O)N2CCCCC2)cc1N(C)S(=O)(=O)c1ccc(Cl)cc1 | 15.8 µM [rising, single point] | 11.2 µM [rising, partial curve, poor fit]

Reference: PubChem BioAssay AID1487 (National Center for Advancing Translational Sciences (NCATS), 2009)
